In PubChem BioAssay AID504842 (National Center for Advancing Translational Sciences (NCATS), 2011):
The whole screen tested about 330,000 compounds, of which about 100 (0.03%) were called active. The shares of active, inactive and inconclusive entries below differ from those in the screen. Calls come from the whole dose curve; as a rule, active = well fitted inhibition curve with a large enough effect; inconclusive = small, poorly fitted or top-dose-only effect; inactive = flat fitted curve, though single readings scatter. Potencies beside an inconclusive call are fits to weak or partial responses and may not hold up.

The compounds below were run on Chaperonin Mm-Cpn (Methanococcus maripaludis) (assay: Inhibitors of TCP-1 ring complex (TRiC) of Methanococcus maripaludis (MmCpn): qHTS). Settings: purified Mm-Cpn ATPase, ADP Transcreener TR-FRET; series mostly up to 76.9 µM; activity, negative = inhibition: at the top concentration.
In short: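 Quantitative HTS used 25 nM Mm-CPN and 10 uM ATP in magnesium/KCl Tris buffer, pH 7.4, with 1 mM DTT. Hydrolysis ran 30 min at 37°C; ADP was read by HTRF.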
% is set by controls: 0 for no effect and ±100 for the full control effect; potency is the fitted concentration of half-maximal effect.
Note: nearly all actives have a fitted effect of over 80% in size.
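Throughout, for Potency: enzyme at 25 nM with ATP substrate at 10 µM during the reaction.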

Structure (SMILES)	activity, negative = inhibition	Potency
COc1cc(C)c(-c2[nH]ncc2-c2csc(C)n2)c(O)c1	inactive: 2.08%	–
COC(=O)c1c(C#N)c(N)nc2c1CCCC2	–	inconclusive: 100 µM [inhibitor, single point]
Cc1nn(-c2ccccc2)c2nc(-c3cccs3)cc(C(=O)NN)c12	–	inconclusive: 100 µM [inhibitor, single point]
COc1cccc(Nc2nc(-c3sc(NC(=O)c4ccccc4)nc3C)cs2)c1	–	inconclusive: 100 µM [inhibitor, single point]
O=C1/C(=C\c2ccc(O)c(O)c2)N=C2CCCCCN12	inactive: -6.25%	–
COc1ccc(-c2nc(-c3cccnc3)no2)cc1	–	inconclusive: 22.4 µM [inhibitor, single point]
N#Cc1ccc(-c2csc(NC(=O)c3ccc(N4C(=O)CCC4=O)cc3)n2)cc1	–	active: 31.6 µM
Cc1ccn(CCC(=O)NC2CC(C)(C)Cc3c2cnn3-c2ccccc2C)n1 (stereo not given)	–	inconclusive: 56.2 µM [inhibitor, single point]
COc1ccc(N2CC(C(=O)OCC(=O)Nc3cccc(C)c3C)CC2=O)cc1 (stereo not given)	–	inconclusive: 89.1 µM [inhibitor, single point]
c1csc(CSc2nnc3sc4ccccc4n23)c1	inactive: 0.146%	–
CC(C)(C)C1CCc2c(sc3nc(SCC(N)=O)nc(N)c23)C1 (stereo not given)	–	inconclusive: 17.8 µM [inhibitor, single point]
O=C(CNC(=S)N(CCCN1CCOCC1)Cc1cccs1)N1CCCCCC1	–	inconclusive: 8.91 µM [inhibitor, single point]
O=C(NCCNC(=O)c1cc(OCC(F)(F)F)ccc1OCC(F)(F)F)Nc1cccc(C(F)(F)F)c1	–	inconclusive: 15.8 µM [inhibitor, single point]
O=C(CN1CCN(c2ccc(O)cc2)CC1)Nc1ccc(S(=O)(=O)N2CCCC2)cc1	inactive: -1.19%	–
O=C(Nc1ccc(N2C(=O)C3C4C=CC(C4)C3C2=O)cc1)Nc1nncs1 (stereo not given)	–	inconclusive: 56.2 µM [inhibitor, single point]
CCCCn1c(SCC(=O)N2CCC(C)CC2)nc2ccsc2c1=O	inactive: 0.605%	–
COc1ccc(C(=S)N(C)C)cc1OC	–	inconclusive: 89.1 µM [inhibitor, single point]
CC(=O)Nc1cccc(OCC(=O)NCCC2=CCCCC2)c1	–	inconclusive: 14.1 µM [inhibitor, single point]
COC(=O)c1ccc(Cn2c(O)c(N=NC(N)=S)c3ccccc32)o1	inactive: -2.9%	–
NC(=O)c1sc2nc(-c3cccs3)ccc2c1N	–	inconclusive: 158 µM [inhibitor, partial curve, poor fit]
CC(C(=O)NC1CCCc2ccccc21)N1C(=O)C2CCCCC2C1=O (stereo not given)	inactive: -0.0401%	–
CCOC(=O)C1(C)NC(c2cccs2)C2C(=O)N(c3ccccc3)C(=O)C21 (stereo not given)	inactive: 0.154%	–
CCCC(=O)c1ccc2c(c1)OCCO2	inactive: 2.03%	–

Laid out differently: entries from further up
Structure (SMILES),"activity, negative = inhibition",Potency
COc1ccc(N2CC(C(=O)OCC(=O)Nc3cccc(C)c3C)CC2=O)cc1 (stereo not given),–,"inconclusive: 89.1 µM [inhibitor, single point]"
CC(C(=O)NC1CCCc2ccccc21)N1C(=O)C2CCCCC2C1=O (stereo not given),inactive: -0.0401%,–

Later entries:

Structure (SMILES)	activity, negative = inhibition	Potency
CCN1CCN(C(=O)CCc2nnc(CCc3ccccc3OC)o2)[C@@H](C)C1=O	inactive: 1.16%	–
COc1ccc2sc(-c3ccc(S(C)(=O)=O)cc3)c(C(=O)NCCc3c[nH]c4ccccc34)c2c1	–	active: 28.2 µM
Cc1ccc(NC(=S)/N=C(\N)Nc2nc(C)c3ccccc3n2)cc1C	–	inconclusive: 100 µM [inhibitor, partial curve, poor fit]
Cc1n[nH]c(=O)c2c(NC(=O)CSc3nc4ccccc4c(=O)n3C(C)C)oc(C)c12	inactive: 0.905%	–
COc1ccc(-c2cc(C(=O)N(C)CC(=O)Nc3cccc(F)c3)c3ccccc3n2)cc1	–	inconclusive: 100 µM [inhibitor, single point]
Cc1[nH]n(-c2ccccc2)c(=O)c1/C=N/Nc1nncc(-c2ccccc2)n1	inactive: -7.46%	–
COc1cc(OC)c(OC)cc1CNC(=O)CCN1C(=O)c2cccc([N+](=O)[O-])c2C1=O	–	inconclusive: 15.8 µM [inhibitor, single point]
CC(C)NC(=O)c1ccc(N(Cc2ccccc2)S(C)(=O)=O)cc1	–	inconclusive: 22.4 µM [inhibitor, single point]
COCc1cc(Sc2ccc(Cl)cc2Cl)nc(-c2ccccc2)n1	–	inconclusive: 31.6 µM [inhibitor, single point]
COc1ccccc1N1CCN(C(=O)COc2cc(C)cc(C)c2)CC1	–	inconclusive: 22.4 µM [inhibitor, single point]
Cc1cccc(C)c1NC(=S)Nc1c(C)n(C)n(-c2ccccc2)c1=O	–	inconclusive: 28.2 µM [inhibitor, single point]
Cc1ccc(N2C(=O)N(CC(=O)N(C)Cc3ccccc3)C(=O)C2C)cc1 (stereo not given)	–	inconclusive: 63.1 µM [inhibitor, single point]
COc1ccc(Cl)cc1Nc1nc(-c2sc(NC(=O)CC(C)C)nc2C)cs1	–	inconclusive: 89.1 µM [inhibitor, single point]
Nc1c(C(=O)Nc2ccccc2)nnn1-c1ccc2c(c1)OCCO2	–	inconclusive: 50.1 µM [inhibitor, single point]
c1csc(-c2nc(NCC3CCCO3)c3ccccc3n2)c1 (stereo not given)	inactive: -3.82%	–
COc1ccc2c(c1)-c1nc(/N=C/c3cccc(OC)c3O)sc1CC2	–	inconclusive: 224 µM [inhibitor, partial curve, poor fit]
NS(=O)(=O)c1ccc(CCNC(=O)c2cc(-c3ccc(Br)cc3)nc3ccccc23)cc1	–	inconclusive: 158 µM [inhibitor, partial curve]
N#CN=C(N)c1ccccc1	–	inconclusive: 17.8 µM [inhibitor, single point]
COc1ccc(/C=C/C(=O)NC(=S)NNC(=O)c2cccs2)cc1OC	–	inconclusive: 79.4 µM [inhibitor, single point]
O=C(Cc1ccccc1)NNC(=S)Nc1ccccc1	inactive: 0.17%	–
O=C(/C=C/c1ccncc1)c1ccc2c(c1)OCCO2	–	inconclusive: 25.1 µM [inhibitor, single point]
CCOC(=O)c1cccc(NC(=O)C2CCN(S(=O)(=O)c3cnc[nH]3)CC2)c1	–	inconclusive: 100 µM [inhibitor, single point]
